Publication PMC4222275, “Biochemical and functional characterization of SpdA, a 2′, 3′cyclic nucleotide phosphodiesterase from Sinorhizobium meliloti” (BMC Microbiology, 2013)
Construct, isoform or probe ends are uncertain for at least one entry. Negatives hold for the conditions tested.

Test system: Clr-GST (Sinorhizobium meliloti 1021)
Test: EMSA
Details: 10 mM Tris pH 8.0, 1 mM EDTA, 1 mM DTT, 10 ug/ml BSA, 100 mM KCl, 50 ug/ml poly(dI-dC), 10% glycerol, 30 min room temperature, probe 1.75 nM, recombinant protein, protein details: N-terminal GST (pGEX-2T), label: 5'-32P

Sequence | binding result (200 uM 3',5'cAMP, Clr 1.75-35 uM) | binding result (200 uM 2',3'cAMP, 69 uM Clr) | binding result (200 uM 3',5'cAMP + 200 uM 2',3'cAMP (1/1), 69 uM Clr, no detectable effect of 2',3'cAMP) | binding result (200 uM 3',5'cAMP, Clr 1.75-35 uM, retarded migration, no clear shifted band) | binding result (no cAMP)
GGCATCGCCACCGCGGGAGCTGGCGGTG (double strand) [MN8 (mutated Clr-box 28-mer)] | no binding |  |  |  | 
GGCATCTGTTCCGCGGGAAACAGCGGTG (double strand) [WTN8 (WT Clr-box 28-mer, smc02178 promoter)] |  | no binding | binds | binds | no binding
